OD600 data for 21 compounds are collected here from the supplement of paper PMC11546906.

Structures can show the parent of a compound that is named as a salt. Some of the results follow. Repeats in this data set agree poorly, so a single value says little.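 A screen tested FDA-approved drugs combined with one-eighth-MIC colistin against a clinical mcr-1-positive, multidrug-resistant E. coli isolate, measuring OD600 at 24 h. Controls were untreated bacteria (growth) and broth alone (blank). An OD600 under 0.2 marked a combination as active.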

The test has as its system Escherichia coli 42 (mcr-1-positive clinical isolate). Put plainly: OD600 after 24 h growth with compound plus colistin (absorbance units (OD600)); higher = more bacterial growth (less inhibition). As to conditions: first compound 25 µM; colistin concentration 0.5 ug/mL; incubation time 24 h; 37 °C.
Turning to `CC1(C)C(C=C(Cl)Cl)C1C(=O)OCc1cccc(Oc2ccccc2)c1` (stereo unspecified) [Permethrin] + CCC(C)CCCC(=O)N[C@@H](CCN)C(=O)N[C@H](C(=O)N[C@@H](CCN)C(=O)N[C@H]1CCNC(=O)[C@H]([C@@H](C)O)NC(=O)[C@H](CCN)NC(=O)[C@H](CCN)NC(=O)[C@H](CC(C)C)NC(=O)[C@@H](CC(C)C)NC(=O)[C@H](CCN)NC1=O)[C@@H](C)O [colistin], the OD600 is inactive: 1.1.

For `Cn1c(CCCC(=O)O)nc2cc(N(CCCl)CCCl)ccc21` [Bendamustine] + CCC(C)CCCC(=O)N[C@@H](CCN)C(=O)N[C@H](C(=O)N[C@@H](CCN)C(=O)N[C@H]1CCNC(=O)[C@H]([C@@H](C)O)NC(=O)[C@H](CCN)NC(=O)[C@H](CCN)NC(=O)[C@H](CC(C)C)NC(=O)[C@@H](CC(C)C)NC(=O)[C@H](CCN)NC1=O)[C@@H](C)O [colistin], the OD600 was inactive: 1.09.

In the case of `CN1C(=O)CCS(=O)(=O)C1c1ccc(Cl)cc1` (stereo unspecified) [Chlormezanone] + CCC(C)CCCC(=O)N[C@@H](CCN)C(=O)N[C@H](C(=O)N[C@@H](CCN)C(=O)N[C@H]1CCNC(=O)[C@H]([C@@H](C)O)NC(=O)[C@H](CCN)NC(=O)[C@H](CCN)NC(=O)[C@H](CC(C)C)NC(=O)[C@@H](CC(C)C)NC(=O)[C@H](CCN)NC1=O)[C@@H](C)O [colistin], the OD600 is inactive: 1.17. In the case of `CC(C)OC(=O)[C@H](C)N[P@](=O)(CO[C@H](C)Cn1cnc2c(N)ncnc21)Oc1ccccc1` [Tenofovir alafenamide] + CCC(C)CCCC(=O)N[C@@H](CCN)C(=O)N[C@H](C(=O)N[C@@H](CCN)C(=O)N[C@H]1CCNC(=O)[C@H]([C@@H](C)O)NC(=O)[C@H](CCN)NC(=O)[C@H](CCN)NC(=O)[C@H](CC(C)C)NC(=O)[C@@H](CC(C)C)NC(=O)[C@H](CCN)NC1=O)[C@@H](C)O [colistin], the OD600 is inactive: 0.986. Consider `COc1ccc(C(CN(C)C)C2(O)CCCCC2)cc1` (stereo unspecified) [Venlafaxine hydrochloride] + CCC(C)CCCC(=O)N[C@@H](CCN)C(=O)N[C@H](C(=O)N[C@@H](CCN)C(=O)N[C@H]1CCNC(=O)[C@H]([C@@H](C)O)NC(=O)[C@H](CCN)NC(=O)[C@H](CCN)NC(=O)[C@H](CC(C)C)NC(=O)[C@@H](CC(C)C)NC(=O)[C@H](CCN)NC1=O)[C@@H](C)O [colistin], for which the OD600 was inactive: 0.882. With `Cc1cccc([C@H](C)c2c[nH]cn2)c1C` [Dexmedetomidine] + CCC(C)CCCC(=O)N[C@@H](CCN)C(=O)N[C@H](C(=O)N[C@@H](CCN)C(=O)N[C@H]1CCNC(=O)[C@H]([C@@H](C)O)NC(=O)[C@H](CCN)NC(=O)[C@H](CCN)NC(=O)[C@H](CC(C)C)NC(=O)[C@@H](CC(C)C)NC(=O)[C@H](CCN)NC1=O)[C@@H](C)O [colistin], the OD600 was inactive: 1.02. The value for `COc1ccc(OC)c(C(O)C(C)N)c1` (stereo unspecified) [Methoxamine hydrochloride] + CCC(C)CCCC(=O)N[C@@H](CCN)C(=O)N[C@H](C(=O)N[C@@H](CCN)C(=O)N[C@H]1CCNC(=O)[C@H]([C@@H](C)O)NC(=O)[C@H](CCN)NC(=O)[C@H](CCN)NC(=O)[C@H](CC(C)C)NC(=O)[C@@H](CC(C)C)NC(=O)[C@H](CCN)NC1=O)[C@@H](C)O [colistin] was inactive: 1.13. As for `COc1cc([C@@H]2c3cc4c(cc3[C@H](O)[C@H]3COC(=O)[C@H]23)OCO4)cc(OC)c1OC` [Podofilox] + CCC(C)CCCC(=O)N[C@@H](CCN)C(=O)N[C@H](C(=O)N[C@@H](CCN)C(=O)N[C@H]1CCNC(=O)[C@H]([C@@H](C)O)NC(=O)[C@H](CCN)NC(=O)[C@H](CCN)NC(=O)[C@H](CC(C)C)NC(=O)[C@@H](CC(C)C)NC(=O)[C@H](CCN)NC1=O)[C@@H](C)O [colistin], the OD600 is inactive: 1.14. The value for `C[N+](C)(C)CCCCCCCCCC[N+](C)(C)C` [Decamethonium bromide] + CCC(C)CCCC(=O)N[C@@H](CCN)C(=O)N[C@H](C(=O)N[C@@H](CCN)C(=O)N[C@H]1CCNC(=O)[C@H]([C@@H](C)O)NC(=O)[C@H](CCN)NC(=O)[C@H](CCN)NC(=O)[C@H](CC(C)C)NC(=O)[C@@H](CC(C)C)NC(=O)[C@H](CCN)NC1=O)[C@@H](C)O [colistin] was inactive: 0.849; that for `O=c1[nH]c2ccccc2n1C1CCN(CCCC(c2ccc(F)cc2)c2ccc(F)cc2)CC1` [Pimozide] + CCC(C)CCCC(=O)N[C@@H](CCN)C(=O)N[C@H](C(=O)N[C@@H](CCN)C(=O)N[C@H]1CCNC(=O)[C@H]([C@@H](C)O)NC(=O)[C@H](CCN)NC(=O)[C@H](CCN)NC(=O)[C@H](CC(C)C)NC(=O)[C@@H](CC(C)C)NC(=O)[C@H](CCN)NC1=O)[C@@H](C)O [colistin] was active: 0.037; that for `CN(C)C(=O)Oc1ccc[n+](C)c1` [Pyridostigmine bromide] + CCC(C)CCCC(=O)N[C@@H](CCN)C(=O)N[C@H](C(=O)N[C@@H](CCN)C(=O)N[C@H]1CCNC(=O)[C@H]([C@@H](C)O)NC(=O)[C@H](CCN)NC(=O)[C@H](CCN)NC(=O)[C@H](CC(C)C)NC(=O)[C@@H](CC(C)C)NC(=O)[C@H](CCN)NC1=O)[C@@H](C)O [colistin] was inactive: 0.719. The value for `CN(C)[C@@H]1C(=O)C(C(N)=O)=C(O)[C@@]2(O)C(=O)C3=C(O)c4c(O)cccc4[C@@](C)(O)[C@H]3[C@H](O)[C@@H]12` [Oxytetracycline] + CCC(C)CCCC(=O)N[C@@H](CCN)C(=O)N[C@H](C(=O)N[C@@H](CCN)C(=O)N[C@H]1CCNC(=O)[C@H]([C@@H](C)O)NC(=O)[C@H](CCN)NC(=O)[C@H](CCN)NC(=O)[C@H](CC(C)C)NC(=O)[C@@H](CC(C)C)NC(=O)[C@H](CCN)NC1=O)[C@@H](C)O [colistin] was inactive: 1.24. With `O=C(O)CCCc1ccc(N(CCCl)CCCl)cc1` [Chlorambucil] + CCC(C)CCCC(=O)N[C@@H](CCN)C(=O)N[C@H](C(=O)N[C@@H](CCN)C(=O)N[C@H]1CCNC(=O)[C@H]([C@@H](C)O)NC(=O)[C@H](CCN)NC(=O)[C@H](CCN)NC(=O)[C@H](CC(C)C)NC(=O)[C@@H](CC(C)C)NC(=O)[C@H](CCN)NC1=O)[C@@H](C)O [colistin] the figure was inactive: 0.735.

`Cn1c(CCCC(=O)O)nc2cc(N(CCCl)CCCl)ccc21` [Bendamustine hydrochloride] + CCC(C)CCCC(=O)N[C@@H](CCN)C(=O)N[C@H](C(=O)N[C@@H](CCN)C(=O)N[C@H]1CCNC(=O)[C@H]([C@@H](C)O)NC(=O)[C@H](CCN)NC(=O)[C@H](CCN)NC(=O)[C@H](CC(C)C)NC(=O)[C@@H](CC(C)C)NC(=O)[C@H](CCN)NC1=O)[C@@H](C)O [colistin]: the OD600 is inactive: 0.935. Take `CCC1(c2ccc(N)cc2)CCC(=O)NC1=O` (stereo unspecified) [Aminoglutethimide] + CCC(C)CCCC(=O)N[C@@H](CCN)C(=O)N[C@H](C(=O)N[C@@H](CCN)C(=O)N[C@H]1CCNC(=O)[C@H]([C@@H](C)O)NC(=O)[C@H](CCN)NC(=O)[C@H](CCN)NC(=O)[C@H](CC(C)C)NC(=O)[C@@H](CC(C)C)NC(=O)[C@H](CCN)NC1=O)[C@@H](C)O [colistin]: the OD600 is inactive: 1.06. Take `O=C(O[C@H]1C[C@H]2CC[C@@H](C1)[N+]21CCCC1)C(O)(c1ccccc1)c1ccccc1` [Trospium chloride] + CCC(C)CCCC(=O)N[C@@H](CCN)C(=O)N[C@H](C(=O)N[C@@H](CCN)C(=O)N[C@H]1CCNC(=O)[C@H]([C@@H](C)O)NC(=O)[C@H](CCN)NC(=O)[C@H](CCN)NC(=O)[C@H](CC(C)C)NC(=O)[C@@H](CC(C)C)NC(=O)[C@H](CCN)NC1=O)[C@@H](C)O [colistin]: the OD600 was inactive: 0.853.

As to `COc1ccc2c(c1)[C@]13CCCC[C@@H]1[C@H](C2)N(C)CC3` [Dextromethorphan HBr monohydrate] + CCC(C)CCCC(=O)N[C@@H](CCN)C(=O)N[C@H](C(=O)N[C@@H](CCN)C(=O)N[C@H]1CCNC(=O)[C@H]([C@@H](C)O)NC(=O)[C@H](CCN)NC(=O)[C@H](CCN)NC(=O)[C@H](CC(C)C)NC(=O)[C@@H](CC(C)C)NC(=O)[C@H](CCN)NC1=O)[C@@H](C)O [colistin], the OD600 was inactive: 1.32. With `CN(C)[C@@H]1C(=O)C(C(N)=O)=C(O)[C@@]2(O)C(=O)C3=C(O)c4c(O)cccc4[C@@](C)(O)[C@H]3C[C@@H]12` [Tetracycline hydrochloride] + CCC(C)CCCC(=O)N[C@@H](CCN)C(=O)N[C@H](C(=O)N[C@@H](CCN)C(=O)N[C@H]1CCNC(=O)[C@H]([C@@H](C)O)NC(=O)[C@H](CCN)NC(=O)[C@H](CCN)NC(=O)[C@H](CC(C)C)NC(=O)[C@@H](CC(C)C)NC(=O)[C@H](CCN)NC1=O)[C@@H](C)O [colistin] the figure was inactive: 1.09; with `N.N.[Cl][Pt][Cl]` [Cisplatin] + CCC(C)CCCC(=O)N[C@@H](CCN)C(=O)N[C@H](C(=O)N[C@@H](CCN)C(=O)N[C@H]1CCNC(=O)[C@H]([C@@H](C)O)NC(=O)[C@H](CCN)NC(=O)[C@H](CCN)NC(=O)[C@H](CC(C)C)NC(=O)[C@@H](CC(C)C)NC(=O)[C@H](CCN)NC1=O)[C@@H](C)O [colistin], inactive: 0.928.

With `O=P1(NCCCl)OCCCN1CCCl` (stereo unspecified) [Ifosfamide] + CCC(C)CCCC(=O)N[C@@H](CCN)C(=O)N[C@H](C(=O)N[C@@H](CCN)C(=O)N[C@H]1CCNC(=O)[C@H]([C@@H](C)O)NC(=O)[C@H](CCN)NC(=O)[C@H](CCN)NC(=O)[C@H](CC(C)C)NC(=O)[C@@H](CC(C)C)NC(=O)[C@H](CCN)NC1=O)[C@@H](C)O [colistin], the OD600 is inactive: 1.02. The value for `CC(O)(CS(=O)(=O)c1ccc(F)cc1)C(=O)Nc1ccc(C#N)c(C(F)(F)F)c1` (stereo unspecified) [Bicalutamide] + CCC(C)CCCC(=O)N[C@@H](CCN)C(=O)N[C@H](C(=O)N[C@@H](CCN)C(=O)N[C@H]1CCNC(=O)[C@H]([C@@H](C)O)NC(=O)[C@H](CCN)NC(=O)[C@H](CCN)NC(=O)[C@H](CC(C)C)NC(=O)[C@@H](CC(C)C)NC(=O)[C@H](CCN)NC1=O)[C@@H](C)O [colistin] was inactive: 0.993.
